Test results: doi:10.1101/2023.10.24.563888
No constants are given. Whether binding was seen depends on the method and setting. Binding seen in cells or lysates may run through a third protein. Some binding calls cover weakened binding; strength is not graded here. For some assays here: Tags and fused reporters may be left off the sequences shown. Blank lines part the entries; values can stand above or below the binder they belong to.

Protein sequences, listed by entry. Tags and fused reporters are not part of them.
UniProt P02538: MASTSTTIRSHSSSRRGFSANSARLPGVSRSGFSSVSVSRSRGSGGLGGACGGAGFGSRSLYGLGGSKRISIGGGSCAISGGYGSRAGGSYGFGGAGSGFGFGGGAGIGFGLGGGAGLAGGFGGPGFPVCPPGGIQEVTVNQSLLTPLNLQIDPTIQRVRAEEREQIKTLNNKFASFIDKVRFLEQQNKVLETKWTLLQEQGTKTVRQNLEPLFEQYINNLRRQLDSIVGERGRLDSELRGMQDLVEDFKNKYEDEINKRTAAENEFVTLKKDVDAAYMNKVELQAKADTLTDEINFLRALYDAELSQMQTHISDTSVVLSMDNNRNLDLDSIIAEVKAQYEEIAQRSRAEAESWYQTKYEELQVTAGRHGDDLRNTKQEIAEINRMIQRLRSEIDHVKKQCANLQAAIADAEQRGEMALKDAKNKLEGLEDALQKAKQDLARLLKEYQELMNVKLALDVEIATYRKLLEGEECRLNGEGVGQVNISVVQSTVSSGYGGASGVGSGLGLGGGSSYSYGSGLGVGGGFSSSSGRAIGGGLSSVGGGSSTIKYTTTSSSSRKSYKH

Columns and labels:
Experiment in all cases: co-IP
[1] = biological target: keratin 6a (K6a), endogenous in hTCEpi cells (human (endogenous in hTCEpi)) (UniProt P02538)
[2] = biological target: K6a-mCherry fusion protein (human) (UniProt P02538)
Flag-tagged IKKε = biological target: T1, Flag-tagged IKKε (UniProt Q14164)
T1 sequence: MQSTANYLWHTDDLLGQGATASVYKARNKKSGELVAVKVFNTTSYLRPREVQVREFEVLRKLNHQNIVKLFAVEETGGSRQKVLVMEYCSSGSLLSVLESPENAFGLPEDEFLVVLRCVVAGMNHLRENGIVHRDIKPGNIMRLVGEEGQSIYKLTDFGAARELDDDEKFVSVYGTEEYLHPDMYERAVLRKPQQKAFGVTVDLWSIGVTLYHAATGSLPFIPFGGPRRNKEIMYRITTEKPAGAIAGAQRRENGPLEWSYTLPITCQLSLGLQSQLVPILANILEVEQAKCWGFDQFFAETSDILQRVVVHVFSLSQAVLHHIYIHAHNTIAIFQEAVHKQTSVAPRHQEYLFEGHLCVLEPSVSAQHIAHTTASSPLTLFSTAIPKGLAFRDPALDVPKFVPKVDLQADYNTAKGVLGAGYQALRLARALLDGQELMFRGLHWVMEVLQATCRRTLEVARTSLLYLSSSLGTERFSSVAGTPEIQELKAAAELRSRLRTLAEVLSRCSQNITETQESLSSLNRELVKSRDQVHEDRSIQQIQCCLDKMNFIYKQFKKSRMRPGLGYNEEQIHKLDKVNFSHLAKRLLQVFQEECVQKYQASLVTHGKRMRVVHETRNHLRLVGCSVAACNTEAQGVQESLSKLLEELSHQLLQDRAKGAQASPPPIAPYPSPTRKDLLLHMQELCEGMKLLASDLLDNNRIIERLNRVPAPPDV

[3] = biological target: K6a overexpressed in 293T cells (human) (UniProt P02538)
Flag-tagged ELKS = biological target: T2, Flag-tagged ELKS (UniProt Q8IUD2)
T2 sequence: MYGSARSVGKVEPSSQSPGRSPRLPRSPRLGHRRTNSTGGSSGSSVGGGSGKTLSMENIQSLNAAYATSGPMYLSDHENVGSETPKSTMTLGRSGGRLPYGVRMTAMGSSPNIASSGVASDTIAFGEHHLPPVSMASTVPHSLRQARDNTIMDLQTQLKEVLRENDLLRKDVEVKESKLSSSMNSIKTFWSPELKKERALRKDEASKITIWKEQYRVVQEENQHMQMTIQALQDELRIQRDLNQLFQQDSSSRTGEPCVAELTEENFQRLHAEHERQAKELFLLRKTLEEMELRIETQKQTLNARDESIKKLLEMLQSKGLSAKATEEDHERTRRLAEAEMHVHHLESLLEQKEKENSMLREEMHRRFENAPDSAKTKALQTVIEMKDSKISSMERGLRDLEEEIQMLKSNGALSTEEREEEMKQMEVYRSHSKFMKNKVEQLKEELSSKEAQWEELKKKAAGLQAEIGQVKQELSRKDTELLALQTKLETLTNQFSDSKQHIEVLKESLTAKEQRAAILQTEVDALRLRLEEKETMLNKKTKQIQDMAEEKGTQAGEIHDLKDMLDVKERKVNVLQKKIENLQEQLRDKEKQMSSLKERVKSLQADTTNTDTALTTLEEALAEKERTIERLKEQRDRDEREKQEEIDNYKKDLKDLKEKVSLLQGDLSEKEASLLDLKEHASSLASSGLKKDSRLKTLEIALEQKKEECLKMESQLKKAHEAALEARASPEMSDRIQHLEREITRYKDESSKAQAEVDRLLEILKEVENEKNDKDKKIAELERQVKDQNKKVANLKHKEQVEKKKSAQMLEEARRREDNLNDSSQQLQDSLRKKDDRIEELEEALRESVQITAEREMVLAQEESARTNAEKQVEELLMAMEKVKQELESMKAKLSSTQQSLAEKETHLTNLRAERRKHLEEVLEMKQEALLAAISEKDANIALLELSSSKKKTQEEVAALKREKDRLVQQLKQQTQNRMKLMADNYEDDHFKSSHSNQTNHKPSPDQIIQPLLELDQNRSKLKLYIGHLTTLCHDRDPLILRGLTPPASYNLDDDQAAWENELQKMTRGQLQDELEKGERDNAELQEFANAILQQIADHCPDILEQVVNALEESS

binding [1]: binds
binding [2]: binds
B1: ELKS/Rab6-interacting/CAST family member 1 (ELKS), endogenous in hTCEpi cells (protein, UniProt Q8IUD2 1-1116)
chain: T2 sequence

binding (Flag-tagged IKKε): binds
binding [3]: binds
B2: Flag-tagged ELKS (protein, UniProt Q8IUD2 1-1116)
chain: T2 sequence

binding (Flag-tagged ELKS): binds
B3: Flag-tagged IKKε (enzyme, UniProt Q14164 1-716)
chain: T1 sequence
